Experimental data published in paper PMC10085053.
Results are given in words; binding and its absence hold for the method and conditions named. In cells and extracts the contact can be indirect. Binding calls can cover weak binding; strength is not graded here.

B1: Protein Tyrosine Phosphatase Non-Receptor Type 14 (PTPN14) (protein, UniProt Q62130 1-1189)
chain: MPFGLKLRRTRRYNVLSKNCFVTRIRLLDSNVIECTLSVESTGQECLEAVAQRLELRETHYFGLWFLSKSQQARWVELEKPLKKHLDKFANEPLLFFGVMFYVPNVSRLQQEATRYQYYLQVKKDVLEGRLRCSLEQVIRLAGLAVQADFGDYNQFDSQEFLREYVLFPMDLAMEEAALEELTQKVAQEHKAHSGILPAEAELMYINEVERLDGFGQEIFPVKDSHGNSVHLGIFFMGIFVRNRVGRQAVIYRWNDIGSVTHSKAAILLELIDKEETALFHTDDIENAKYISRLFTTRHKFYKQNKICTEQSNSPPPIRRQPTWSRSSLPRQQPYILPPMHVQCSEHYSETHTSQDSIFPGNEEALYCRSHNSLDLNYLNGTVTNGSVCSVHSVNSLSCSQSFIQASPVSSNLSIPGSDIMRADYIPSHRHSTIIVPSYRPTPDYETVMRQMKRGLMHADSQSRSLRNLNIINTHAYNQPEELVYSQPEMRERHPYTVPYAHQGCYGHKLVSPSDQMNPQNCAMPIKPGASSISHTVSTPELANMQLQGAQHYSTAHMLKNYLFRPPPPYPRPRPATSTPDLASHRHKYVSGSSPDLVTRKVQLSVKTFQEDSSPVVHQSLQEVSEPLTATKHHGGGGGTVNKRHSLEVMNSMVRGMEAMTLKSLNIPMARRNTLREQGPSEETGGHEVHGLPQYHHKKTFSDATMLIHSSESEEEEETLEAAPQVPVLREKVEYSAQLQAALARIPNRPPPEYPGPRKSVSNGALRQDQGTPLPAMARCRVLRHGPSKALSVSRAEQLAVNGASLGPSISEPDLTSVKERVKKEPVKERPVSEMFSLEDSIIEREMMIRNLEKQKMTGPQAQKRPLMLAALNGLSVARVSGREDGHHDATRVPIDERLRALKKKLEDGMVFTEYEQIPNKKANGVFSTATLPENAERSRIREVVPYEENRVELIPTKENNTGYINASHIKVVVGGSEWHYIATQGPLPHTCHDFWQMVWEQGVNVIAMVTAEEEGGRTKSHRYWPKLGSKHSSATYGKFKVTTKFRTDSGCYATTGLKVKHLLSGQERTVWHLQYTDWPHHGCPEDVQGFLSYLEEIQSVRRHTNSVLEGIRTRHPPIVVHCSAGVGRTGVVILSELMIYCLEHNEKVEVPTMLRFLREQRMFMIQTIAQYKFVYQVLVQFLQNSRLI
B2: retinoblastoma tumor suppressor (pRB) (protein, UniProt P13405 1-921)
chain: MPPKAPRRAAAAEPPPPPPPPPREDDPAQDSGPEELPLARLEFEEIEEPEFIALCQKLKVPDHVRERAWLTWEKVSSVDGILEGYIQKKKELWGICIFIAAVDLDEMPFTFTELQKSIETSVYKFFDLLKEIDTSTKVDNAMSRLLKKYNVLCALYSKLERTCELIYLTQPSSALSTEINSMLVLKISWITFLLAKGEVLQMEDDLVISFQLMLCVVDYFIKFSPPALLREPYKTAAIPINGSPRTPRRGQNRSARIAKQLENDTRIIEVLCKEHECNIDEVKNVYFKNFIPFINSLGIVSSNGLPEVESLSKRYEEVYLKNKDLDARLFLDHDKTLQTDPIDSFETERTPRKNNPDEEANVVTPHTPVRTVMNTIQQLMVILNSASDQPSENLISYFNNCTVNPKENILKRVKDVGHIFKEKFANAVGQGCVDIGVQRYKLGVRLYYRVMESMLKSEEERLSIQNFSKLLNDNIFHMSLLACALEVVMATYSRSTLQHLDSGTDLSFPWILNVLNLKAFDFYKVIESFIKVEANLTREMIKHLERCEHRIMESLAWLSDSPLFDLIKQSKDGEGPDNLEPACPLSLPLQGNHTAADMYLSPLRSPKKRTSTTRVNSAANTETQAASAFHTQKPLKSTSLALFYKKVYRLAYLRLNTLCARLLSDHPELEHIIWTLFQHTLQNEYELMRDRHLDQIMMCSMYGICKVKNIDLKFKIIVTAYKDLPHAAQETFKRVLIREEEFDSIIVFYNSVFMQRLKTNILQYASTRPPTLSPIPHIPRSPYKFSSSPLRIPGGNIYISPLKSPYKISEGLPTPTKMTPRSRILVSIGESFGTSEKFQKINQMVCNSDRVLKRSAEGGNPPKPLKKLRFDIEGADEADGSKHLPAESKFQQKLAEMTSTRTRMQKQRMNESKDVSNKEEK

Tests used:
Assay in all cases: co-IP; NIH 3T3 cells transfected with HA/FLAG-tagged E7 plasmids, harvested 48 hr post-transfection in EBC buffer (50mM Tris-Cl pH 8.0, 150mM NaCl, 0.5% NP-40, 0.5mM EDTA); anti-HA agarose beads; 3 mg lysate per IP; western blot for PTPN14, pRb, FLAG
[1] = molecular target: C-terminally HA/FLAG epitope-tagged MmuPV1 E7 (murine papillomavirus (MmuPV1))
[2] = molecular target: N-terminally HA/FLAG epitope-tagged MmuPV1 E7 (murine papillomavirus (MmuPV1))
[3] = molecular target: C-terminally tagged MmuPV1 E7^K81S (murine papillomavirus (MmuPV1))
[4] = molecular target: N-terminally tagged MmuPV1 E7^K81S (murine papillomavirus (MmuPV1))

Row | Binder | binding [1] | binding [2] | binding [3] | binding [4]
1 | B1 | binds | binds |  | 
2 | B2 |  |  | binds | binds
